Assay results from PMC7950264.
These are yes or no findings as the source states them, for the method shown. Binding seen in cells or lysates may run through a third protein. A yes stands for co-enrichment or nearness to the bait. Other partners may have been found.

By UniProt entry, the sequences of proteins in these tests, tags left out. Where a name states a change or a piece, a line headed by the entry shows the natural chain unless it says otherwise. Chains listed by the source or under a name are the forms on record and can include a tag or linker.
pyruvate kinase M1 (P14618-2, form named): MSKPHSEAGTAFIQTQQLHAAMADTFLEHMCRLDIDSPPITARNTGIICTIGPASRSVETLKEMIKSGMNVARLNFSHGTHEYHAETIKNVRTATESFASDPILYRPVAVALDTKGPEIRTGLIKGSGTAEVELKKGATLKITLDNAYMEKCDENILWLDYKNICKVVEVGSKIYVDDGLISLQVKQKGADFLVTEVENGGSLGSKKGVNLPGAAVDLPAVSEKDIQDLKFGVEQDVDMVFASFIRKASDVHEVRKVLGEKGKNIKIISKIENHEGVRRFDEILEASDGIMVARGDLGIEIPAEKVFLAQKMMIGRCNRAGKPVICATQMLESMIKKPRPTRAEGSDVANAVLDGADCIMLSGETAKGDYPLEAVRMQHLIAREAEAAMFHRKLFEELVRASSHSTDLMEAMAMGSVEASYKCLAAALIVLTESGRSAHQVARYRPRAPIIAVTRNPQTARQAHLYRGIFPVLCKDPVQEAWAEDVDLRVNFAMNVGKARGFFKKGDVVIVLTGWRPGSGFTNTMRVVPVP

T1: TRIM29 (human (endogenous in DLD-1 and SW480)) (UniProt Q14134)
T1 sequence: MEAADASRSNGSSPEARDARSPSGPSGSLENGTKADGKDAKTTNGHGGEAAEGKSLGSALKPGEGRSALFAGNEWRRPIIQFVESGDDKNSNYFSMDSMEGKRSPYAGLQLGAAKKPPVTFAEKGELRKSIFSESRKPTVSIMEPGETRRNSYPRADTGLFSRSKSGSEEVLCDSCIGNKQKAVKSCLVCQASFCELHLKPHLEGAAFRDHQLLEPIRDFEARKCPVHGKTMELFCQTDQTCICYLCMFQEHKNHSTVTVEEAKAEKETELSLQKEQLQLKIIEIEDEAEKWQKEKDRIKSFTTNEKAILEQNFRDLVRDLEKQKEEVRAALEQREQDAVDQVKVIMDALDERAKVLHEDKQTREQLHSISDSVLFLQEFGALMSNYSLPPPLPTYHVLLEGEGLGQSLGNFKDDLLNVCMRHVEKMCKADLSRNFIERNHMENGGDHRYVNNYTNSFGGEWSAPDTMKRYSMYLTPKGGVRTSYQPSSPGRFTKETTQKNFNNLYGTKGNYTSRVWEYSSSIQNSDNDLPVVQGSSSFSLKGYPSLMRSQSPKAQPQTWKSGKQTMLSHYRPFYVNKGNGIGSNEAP

B1: Serpin B3 (protein, UniProt P29508 1-390)
chain: MNSLSEANTKFMFDLFQQFRKSKENNIFYSPISITSALGMVLLGAKDNTAQQIKKVLHFDQVTENTTGKAATYHVDRSGNVHHQFQKLLTEFNKSTDAYELKIANKLFGEKTYLFLQEYLDAIKKFYQTSVESVDFANAPEESRKKINSWVESQTNEKIKNLIPEGNIGSNTTLVLVNAIYFKGQWEKKFNKEDTKEEKFWPNKNTYKSIQMMRQYTSFHFASLEDVQAKVLEIPYKGKDLSMIVLLPNEIDGLQKLEEKLTAEKLMEWTSLQNMRETRVDLHLPRFKVEESYDLKDTLRTMGMVDIFNGDADLSGMTGSRGLVLSGVLHKAFVEVTEEGAEAAAATAVVGFGSSPTSTNEEFHCNHPFLFFIRQNKTNSILFYGRFSSP
B2: 5'-nucleotidase isoform 2 preproprotein (enzyme, UniProt P21589-2 27-499)
chain: WELTILHTNDVHSRLEQTSEDSSKCVNASRCMGGVARLFTKVQQIRRAEPNVLLLDAGDQYQGTIWFTVYKGAEVAHFMNALRYDAMALGNHEFDNGVEGLIEPLLKEAKFPILSANIKAKGPLASQISGLYLPYKVLPVGDEVVGIVGYTSKETPFLSNPGTNLVFEDEITALQPEVDKLKTLNVNKIIALGHSGFEMDKLIAQKVRGVDVVVGGHSNTFLYTGNPPSKEVPAGKYPFIVTSDDGRKVPVVQAYAFGKYLGYLKIEFDERGNVISSHGNPILLNSSIPEDPSIKADINKWRIKLDNYSTQELGKTIVYLDGSSQSCRFRECNMGNLICDAMINNNLRHTDEMFWNHVSMCILNGGGIRSPIDERNNGIHVVYDLSRKPGDRVVKLDVLCTKCRVPSYDPLKMDEVYKVILPNFLANGGDGFQMIKDELLRHDSGDQDINVVSTYISKMKVIYPAVEGRIKFS

These molecules were tested against T1, TRIM29 (human (endogenous in DLD-1 and SW480)) (assay: affinity purification with mass spectrometry; 2 mg DLD-1 lysate with 1 ug anti-TRIM29 antibody or rabbit IgG and protein A/G beads, 4 C overnight; SDS-PAGE, silver staining, differential bands between 35 and 70 kDa analysed by LC-MS/MS).

| Molecule | binding |
| --- | --- |
| annexin A2 isoform 2 (from UniProt P07355-1 1-339) | binds |
| pyruvate kinase M1 (from UniProt P14618-2 1-531) (enzyme) | binds |
| B1 | binds |
| B2 | binds |
